# Source: patent US20190046658A1
# Results are given in words; binding and its absence hold for the method and conditions named. Some entries that bind do so weakly or less than the wild type.
# T1: soluble truncated uPARAP protein containing the first 3 N-terminal domains of human uPARAP (CysR, FN-II and CTLD-1) (human) (UniProt Q9UBG0)
# T1 sequence: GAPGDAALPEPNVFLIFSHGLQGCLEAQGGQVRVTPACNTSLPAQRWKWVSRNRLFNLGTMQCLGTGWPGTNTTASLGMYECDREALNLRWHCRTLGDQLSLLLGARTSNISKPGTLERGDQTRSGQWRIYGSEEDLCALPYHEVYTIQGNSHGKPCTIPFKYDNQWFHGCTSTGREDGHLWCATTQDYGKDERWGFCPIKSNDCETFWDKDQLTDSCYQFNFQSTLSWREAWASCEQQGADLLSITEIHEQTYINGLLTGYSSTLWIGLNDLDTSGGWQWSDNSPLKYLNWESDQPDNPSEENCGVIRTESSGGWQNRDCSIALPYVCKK
# Target: T1, soluble truncated uPARAP protein containing the first 3 N-terminal domains of human uPARAP (CysR, FN-II and CTLD-1) (human)
# Test: ELISA, truncated human uPARAP (3 N-terminal domains) coated at 25 ng/well
row,binding,Binder
1,binds,"mAb 2h9 (mouse monoclonal IgG1κ antibody clone 2.h.9:F12, produced by hybridoma cell culture) (antibody, V domains shown) VH: QVQLQQPGTELVRPGLSVKLSCKASGYTFTSYWMNWVKQRPGQGLEWIGMIHPSNDEKRINQKFKDKATLTVDKFSSTVYMQVSSPTSEDSAVYYCARGGGDYVGDYALDFWGQGTSVTVSS VL: DIQMTQSPASQSASLGESVTITCLASQTIGTWLAWYQQKPGKSPQLLIYAATTLTDGVPSRFSGAGSGTKFSLKISSLQAEDFASYFCQEFFSTPFTFGSGTKLELKR"
2,binds,"mAb 2h9 subjected to the reduction procedure of conjugation (no drug attached) (antibody, mouse IgG1, kappa, V domains shown, interchain disulphides partly reduced (10 mM DTT, 10 min, 37 C)) VH: QVQLQQPGTELVRPGLSVKLSCKASGYTFTSYWMNWVKQRPGQGLEWIGMIHPSNDEKRINQKFKDKATLTVDKFSSTVYMQVSSPTSEDSAVYYCARGGGDYVGDYALDFWGQGTSVTVSS VL: DIQMTQSPASQSASLGESVTITCLASQTIGTWLAWYQQKPGKSPQLLIYAATTLTDGVPSRFSGAGSGTKFSLKISSLQAEDFASYFCQEFFSTPFTFGSGTKLELKR"
